Columns and labels:
Format in all cases: cell-based
[1] = test system: SW480 cells (human primary colon cancer); experiment: MTT assay, SW480 cells
From the text: (§1) Primary and metastatic colon cancer (SW480, SW620), metastatic prostate cancer (PC3), and human immortal keratinocyte (HaCaT) cell lines and immortal microvascular endothelial cells (HMEC-1) were obtained from the American Type Culture Collection (ATCC, Rockville, USA) and cultured in recommended medium, namely, MEM (Biowest SAS, France) for the SW480 and SW620 cells, RPMI 1640 (Biowest SAS, Nuaillé, France) for PC3, DMEM (Biowest SAS, France) for HaCaT and MCDB 131 (PAN BioTech, Aidenbach, Germany) for HMEC-1. The SW480 and SW620 cell lines were initiated by A. Leibovitz et al. and derived from a human primary colon adenocarcinoma and lymph node metastasis of the same patient. respectively. PC3 cell cells were initiated from a bone metastasis of a human prostatic adenocarcinoma. HaCaT cells were obtained from adult human skin, while HMEC-1 cells were established from the dermis of a human neonate. Cells were cultured in recommended medium supplemented with 10% FBS (Biowest SAS, Nuaillé, France), penicillin (100 U/mL), streptomycin […] (Gibco Life Technologies, Waltham MA, USA) and incubated at 37 °C under 5% CO2. The culture medium of HMEC-1 cells was additionally supplemented with glutamine (1 mM) and microvascular growth supplement (5%) (MVGS; Gibco, USA). The cells were cultured until 80% confluency was reached, harvested by treatment with 0.25% trypsin 0.02% EDTA (Gibco Life Technologies, Waltham, MA, USA) and subsequently used for further experiments.
(§2) Cell viability was estimated using a conversion of 3-(4,5-dimethylthiazol-2-yl)-2,5-diphenyltetrazolium bromide salt (MTT) to insoluble formazan crystals by mitochondrial dehydrogenases, present in living cells. Cells were cultured in 96-well plates (l × 10^4 cells per well) and incubated for 24 h at 37 °C under 5% CO2. Next, the cells were treated with various concentrations of the tested compounds (ranging from 10 to 180 μM) and incubated for 72 h at 37 °C under 5% CO2. Untreated cells were used as the control. Next, the medium was removed, MTT solution (0.5 mg/mL) was added to each well, and the cells were incubated for 4 h at 37 °C under 5% CO2. After that, the obtained formazan crystals were dissolved in DMSO and isopropanol (1:1, v/v). The optical density of the dissolved crystals was measured at a wavelength of 570 nm using a UVM 340 reader (ASYS Hitech GmbH, Austria). Cell viability was presented as a percent of MTT reduced in treated cells versus control cells. The relative MTT level (%) was calculated as [A]/[B] × 100, where [A] is the absorbance of the test sample, and [B] is the absorbance of the control sample. The IC50 value was estimated using CompuSyn version 1.0.

[2] = test system: PC3 cells (human metastatic prostate cancer); experiment: MTT assay, PC3 cells
From the text: as §1, §2

[3] = test system: SW620 cells (human metastatic colon cancer); experiment: MTT assay, SW620 cells
From the text: as §1, §2

| SMILES | SI SW480 (IC50 normal cell line/IC50 cancer cell line) ([1]; normal cell line HMEC-1) | SI SW480 (IC50 normal cell line/IC50 cancer cell line) ([1]; normal cell line HaCaT) | SI PC3 (IC50 normal cell line/IC50 cancer cell line) ([2]; normal cell line HMEC-1) | SI PC3 (IC50 normal cell line/IC50 cancer cell line) ([2]; normal cell line HaCaT) | SI SW620 (IC50 normal cell line/IC50 cancer cell line) ([3]; normal cell line HMEC-1) | SI SW620 (IC50 normal cell line/IC50 cancer cell line) ([3]; normal cell line HaCaT) |
| --- | --- | --- | --- | --- | --- | --- |
| CC(=O)c1ccc(N2CCN(CCCCCN3C(=O)NC4(CCCc5ccccc54)C3=O)CC2)cc1 (racemic) [Compound 4, (R,S)-1-(5-(4-(4-Acetylphenyl)piperazin-1-yl)pentyl)-3′,4′-dihydro-2′H-spiro[imidazolidine-4,1′-naphthalene]-2,5-dione] | 8.88 | 2.19 | 7.25 | 1.79 | 11.57 | 2.85 |
| CC(=O)c1ccc(N2CCN(CCCCn3c(=O)ccn4c5c(=O)n(C)c(=O)n(C)c5nc34)CC2)cc1 [Compound 12, 9-(4-(4-(4-Acetylphenyl)piperazin-1-yl)butyl)-1,3-dimethylpyrimido[2,1-f]purine-2,4,8(1H,3H,9H)-trione] |  |  |  | 1.17 |  | 0.49 |
| CC(=O)c1ccc(N2CCN(CCCCCN3C(=O)NC4(Cc5ccccc5C4)C3=O)CC2)cc1 [Compound 6, (R,S)-1-{5-[4-(4-Acetylophenyl)piperazyn-1-yl]pentyl}-1′,3′-dihydro-2H,5H-spiro[imidazolidine-4,2′-indene]-2,5-dione] |  | 2.95 |  | 1.67 |  | 2.02 |
| CC(=O)c1ccc(N2CCN(CCCCn3c(C)cn4c5c(=O)n(C)c(=O)n(C)c5nc34)CC2)cc1 [Compound 10, 8-(4-(4-(4-Acetylphenyl)piperazin-1-yl)butyl)-1,3,7-trimethyl-1H-imidazo[2,1-f]purine-2,4(3H,8H)-dione] |  |  |  | 1.11 |  | 0.73 |
| CC(=O)c1ccc(N2CCN(CCCCN3C(=O)NC4(CCc5ccccc54)C3=O)CC2)cc1 (racemic) [Compound 1, (R,S)-1-(4-(4-(4-Acetylphenyl)piperazin-1-yl)butyl)-2′,3′-dihydrospiro[imidazolidine-4,1′-indene]-2,5-dione] |  | 0.77 |  | 0.72 |  | 0.62 |
| CC(=O)c1ccc(N2CCN(CCCCn3c(=O)c(Br)cn4c5c(=O)n(C)c(=O)n(C)c5nc34)CC2)cc1 [Compound 14, 9-(4-(4-(4-Acetylphenyl)piperazin-1-yl)butyl)-7-bromo-1,3-dimethylpyrimido[2,1-f]purine-2,4,8(1H,3H,9H)-trione] |  |  |  | 1.06 |  |  |
| CC(=O)c1ccc(N2CCN(CCCCN3C(=O)NC4(CCCc5ccccc54)C3=O)CC2)cc1 (racemic) [Compound 3, (R,S)-1-(4-(4-(4-Acetylphenyl)piperazin-1-yl)butyl)-3′,4′-dihydro-2′H-spiro[imidazolidine-4,1′-naphthalene]-2,5-dione] |  | 0.88 |  | 1.76 |  | 1.09 |
| CC(=O)c1ccc(N2CCN(CCCCCn3ccn4c5c(=O)n(C)c(=O)n(C)c5nc34)CC2)cc1 [Compound 11, 8-(5-(4-(4-Acetylphenyl)piperazin-1-yl)pentyl)-1,3-dimethyl-1H-imidazo[2,1-f]purine-2,4(3H,8H)-dione] |  |  |  | 0.97 |  | 0.60 |
| CC(=O)c1ccc(N2CCN(CCCCCn3c(=O)ccn4c5c(=O)n(C)c(=O)n(C)c5nc34)CC2)cc1 [Compound 13, 9-(5-(4-(4-Acetylphenyl)piperazin-1-yl)pentyl)-1,3-dimethylpyrimido[2,1-f]purine-2,4,8(1H,3H,9H)-trione] |  |  |  | 1.33 |  |  |
| CC(=O)c1ccc(N2CCN(CCCCCN3C(=O)NC4(CCc5ccccc54)C3=O)CC2)cc1 (racemic) [Compound 2, (R,S)-1-(5-(4-(4-Acetylphenyl)piperazin-1-yl)pentyl)-2′,3′-dihydrospiro[imidazolidine-4,1′-indene]-2,5-dione] |  | 0.55 |  | 0.62 |  | 0.52 |
| CC(=O)c1ccc(N2CCN(CCCCn3ccn4c5c(=O)n(C)c(=O)n(C)c5nc34)CC2)cc1 [Compound 9, 8-(4-(4-(4-Acetylphenyl)piperazin-1-yl)butyl)-1,3-dimethyl-1H-imidazo[2,1-f]purine-2,4(3H,8H)-dione] |  | 0.47 |  | 0.72 |  | 0.50 |

— publication PMC8347464, “Design, Synthesis, and In Vitro Antiproliferative Activity of Hydantoin and Purine Derivatives with the 4-Acetylphenylpiperazinylalkyl Moiety” (Materials, 2021)
